Here are results for 15 sequences from article PMC7156710.

Sequences of proteins named here, by UniProt entry; tags and fusion partners are left off. Residues count along the entry.
UniProt P48431, 40-123: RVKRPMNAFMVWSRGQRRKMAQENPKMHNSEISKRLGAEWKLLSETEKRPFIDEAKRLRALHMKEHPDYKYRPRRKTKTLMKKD
UniProt P48431, 40-123 F48A: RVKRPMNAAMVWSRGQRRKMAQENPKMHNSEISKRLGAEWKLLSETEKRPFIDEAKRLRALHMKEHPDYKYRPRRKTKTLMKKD
UniProt P48431, 40-123 R43A: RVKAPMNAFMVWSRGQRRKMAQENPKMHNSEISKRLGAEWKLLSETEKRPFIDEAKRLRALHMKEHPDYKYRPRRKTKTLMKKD
UniProt P48431, 40-123 N46A: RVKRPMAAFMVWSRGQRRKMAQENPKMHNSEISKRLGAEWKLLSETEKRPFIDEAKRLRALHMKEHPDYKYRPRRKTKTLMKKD
UniProt P48431, 40-123 H105A: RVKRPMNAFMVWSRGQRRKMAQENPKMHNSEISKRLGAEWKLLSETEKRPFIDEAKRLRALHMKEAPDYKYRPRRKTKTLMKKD
UniProt P48431, 40-123 W79A: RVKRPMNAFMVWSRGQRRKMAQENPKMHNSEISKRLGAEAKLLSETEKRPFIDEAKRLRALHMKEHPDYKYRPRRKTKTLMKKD
UniProt P48431, 40-123 M49A: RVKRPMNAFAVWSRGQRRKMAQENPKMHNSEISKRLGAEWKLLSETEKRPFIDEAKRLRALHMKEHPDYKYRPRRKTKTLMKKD
UniProt P48431, 40-123 W51A: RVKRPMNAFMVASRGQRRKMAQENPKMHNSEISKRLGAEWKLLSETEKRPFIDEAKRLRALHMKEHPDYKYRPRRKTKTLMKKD
UniProt P48431, 40-123 Y110A: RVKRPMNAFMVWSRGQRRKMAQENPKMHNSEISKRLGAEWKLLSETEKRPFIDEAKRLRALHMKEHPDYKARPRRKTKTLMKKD
UniProt P48431, 40-123 K115A: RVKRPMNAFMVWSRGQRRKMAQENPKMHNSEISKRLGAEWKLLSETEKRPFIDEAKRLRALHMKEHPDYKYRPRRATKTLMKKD
UniProt P48431, 40-123 R56A: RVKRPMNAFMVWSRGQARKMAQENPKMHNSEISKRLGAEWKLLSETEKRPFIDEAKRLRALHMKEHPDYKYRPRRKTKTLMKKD
UniProt P48431, 40-123 H101A: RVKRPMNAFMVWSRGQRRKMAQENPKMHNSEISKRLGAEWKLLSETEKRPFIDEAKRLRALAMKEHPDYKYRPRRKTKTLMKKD

Construct, isoform or probe ends are uncertain for at least one entry. For some of these results: Weaker means in comparison with the reference protein, sequence or condition of that experiment. For some of these results: Whether high values mean tight binding is not given here for every scale.

Series [1] concerns the target Sox2-HMG (Homo sapiens) (UniProt P48431). The experiment in a line: fluorescence anisotropy. Particulars: 10 mM Tris-HEPES pH 7.5, 135 mM KCl, 15 mM NaCl, 1 mM DTT, 8% Ficoll, 0.05% NP-40, 0.1 mg/mL BSA, 2 nM DNA or 3 nM RNA, room temperature (stated for competition), recombinant protein, residues 40-123, protein details: N-terminal His6, thrombin cleaved. (In fluorescence polarisation assays a small probe gives low polarisation when free and higher when bound to something large.)

The target is the same in series [2]. The series can be described thus: NMR HSQC. Particulars: 10 mM Tris-HEPES pH 7.5, 135 mM KCl, 15 mM NaCl, 1 mM DTT, 8% Ficoll, 0.05% NP-40, 0.1 mg/mL BSA; 2 nM DNA or 3 nM RNA; room temperature (stated for competition); recombinant protein; residues 40-123; protein details: N-terminal His6, thrombin cleaved; label: FAM.
For series [3] the target is unchanged. The series can be described thus: competition with a labelled probe. The settings on record: unlabeled DNA vs labeled Loop B/Bulge(0+1) RNA; 10 mM Tris-HEPES pH 7.5, 135 mM KCl, 15 mM NaCl, 1 mM DTT, 8% Ficoll, 0.05% NP-40, 0.1 mg/mL BSA; 2 nM DNA or 3 nM RNA; room temperature (stated for competition); recombinant protein; residues 40-123; protein details: N-terminal His6, thrombin cleaved; label: FAM.

The target of series [4] is Sox2-HMG F48A (Homo sapiens) (UniProt P48431). The series can be described thus: fluorescence anisotropy. The settings on record: 10 mM Tris-HEPES pH 7.5, 135 mM KCl, 15 mM NaCl, 1 mM DTT, 8% Ficoll, 0.05% NP-40, 0.1 mg/mL BSA; 2 nM DNA or 3 nM RNA; room temperature (stated for competition); recombinant protein; residues 40-123; protein details: His6; label: FAM.
Series [5] deals with Sox2-HMG R43A (Homo sapiens) (UniProt P48431). The experiment in a line: fluorescence anisotropy. The settings on record: 10 mM Tris-HEPES pH 7.5, 135 mM KCl, 15 mM NaCl, 1 mM DTT, 8% Ficoll, 0.05% NP-40, 0.1 mg/mL BSA; 2 nM DNA or 3 nM RNA; room temperature (stated for competition); recombinant protein; residues 40-123; protein details: His6; label: FAM.
Series [6] has as its target Sox2-HMG N46A (Homo sapiens) (UniProt P48431). The experiment in a line: fluorescence anisotropy. Particulars: 10 mM Tris-HEPES pH 7.5, 135 mM KCl, 15 mM NaCl, 1 mM DTT, 8% Ficoll, 0.05% NP-40, 0.1 mg/mL BSA; 2 nM DNA or 3 nM RNA; room temperature (stated for competition); recombinant protein; residues 40-123; protein details: His6; label: FAM.
Series [7] addresses Sox2-HMG H105A (Homo sapiens) (UniProt P48431). The series can be described thus: fluorescence anisotropy. The settings on record: 10 mM Tris-HEPES pH 7.5, 135 mM KCl, 15 mM NaCl, 1 mM DTT, 8% Ficoll, 0.05% NP-40, 0.1 mg/mL BSA; 2 nM DNA or 3 nM RNA; room temperature (stated for competition); recombinant protein; residues 40-123; protein details: His6; label: FAM.
Series [8] has as its target Sox2-HMG W79A (Homo sapiens) (UniProt P48431). The experiment in a line: fluorescence anisotropy. The settings on record: 10 mM Tris-HEPES pH 7.5, 135 mM KCl, 15 mM NaCl, 1 mM DTT, 8% Ficoll, 0.05% NP-40, 0.1 mg/mL BSA; 2 nM DNA or 3 nM RNA; room temperature (stated for competition); recombinant protein; residues 40-123; protein details: His6; label: FAM.
The target in series [9] is Sox2-HMG M49A (Homo sapiens) (UniProt P48431). The experiment in a line: fluorescence anisotropy. Particulars: 10 mM Tris-HEPES pH 7.5, 135 mM KCl, 15 mM NaCl, 1 mM DTT, 8% Ficoll, 0.05% NP-40, 0.1 mg/mL BSA; 2 nM DNA or 3 nM RNA; room temperature (stated for competition); recombinant protein; residues 40-123; protein details: His6; label: FAM.
Series [10] addresses Sox2-HMG W51A (Homo sapiens) (UniProt P48431). The series can be described thus: fluorescence anisotropy. Particulars: 10 mM Tris-HEPES pH 7.5, 135 mM KCl, 15 mM NaCl, 1 mM DTT, 8% Ficoll, 0.05% NP-40, 0.1 mg/mL BSA; 2 nM DNA or 3 nM RNA; room temperature (stated for competition); recombinant protein; residues 40-123; protein details: His6; label: FAM.
In series [11] the target is Sox2-HMG Y110A (Homo sapiens) (UniProt P48431). The series can be described thus: fluorescence anisotropy. Particulars: 10 mM Tris-HEPES pH 7.5, 135 mM KCl, 15 mM NaCl, 1 mM DTT, 8% Ficoll, 0.05% NP-40, 0.1 mg/mL BSA; 2 nM DNA or 3 nM RNA; room temperature (stated for competition); recombinant protein; residues 40-123; protein details: His6; label: FAM.
In series [12] the target is Sox2-HMG K115A (Homo sapiens) (UniProt P48431). The experiment in a line: fluorescence anisotropy. The settings on record: 10 mM Tris-HEPES pH 7.5, 135 mM KCl, 15 mM NaCl, 1 mM DTT, 8% Ficoll, 0.05% NP-40, 0.1 mg/mL BSA; 2 nM DNA or 3 nM RNA; room temperature (stated for competition); recombinant protein; residues 40-123; protein details: His6; label: FAM.
Series [13] concerns the target Sox2-HMG R56A (Homo sapiens) (UniProt P48431). The experiment in a line: fluorescence anisotropy. The settings on record: 10 mM Tris-HEPES pH 7.5, 135 mM KCl, 15 mM NaCl, 1 mM DTT, 8% Ficoll, 0.05% NP-40, 0.1 mg/mL BSA; 2 nM DNA or 3 nM RNA; room temperature (stated for competition); recombinant protein; residues 40-123; protein details: His6; label: FAM.
Series [14] deals with Sox2-HMG H101A (Homo sapiens) (UniProt P48431). The experiment in a line: fluorescence anisotropy. The settings on record: 10 mM Tris-HEPES pH 7.5, 135 mM KCl, 15 mM NaCl, 1 mM DTT, 8% Ficoll, 0.05% NP-40, 0.1 mg/mL BSA; 2 nM DNA or 3 nM RNA; room temperature (stated for competition); recombinant protein; residues 40-123; protein details: His6; label: FAM.

Regarding “AUACAACAUACAACAUACAACAUACAACAUACAACA [env8 ssRNA]”, the Kd (usually the free concentration of one partner at which half of the binding sites on the other are occupied at equilibrium, for simple one-to-one binding) in the series with Sox2-HMG (Homo sapiens) [1] (label: 3' fluorescein) amounted to 500 nM.

On to “CGCGCACTACAGCCCGGGT (double strand) [CCND1_SM6 dsDNA]”, for which the Kd in the series with Sox2-HMG (Homo sapiens) [1] (label: FAM) came out at 24 nM.

Regarding “CGCGCATTTGTACCCGGGT (double strand) [DPPA4 enhancer dsDNA]”, in the series with Sox2-HMG (Homo sapiens) [1] (label: FAM), the Kd was 3.4 nM. On the same count and under the same terms, the same measure for “CGCGCCATTGTGCCCGGGT (double strand) [SOX2 enhancer dsDNA]”: 0.9 nM; for “CGCGCCCTCTTCCCCGGGT (double strand) [CCND1_SM1 dsDNA]”: 9.8 nM.

“CGCGCCTTTGTTCCCGGGT (double strand) [FGF4 enhancer dsDNA]”: the binding result in the series with Sox2-HMG (Homo sapiens) [2] is recorded as “binds”; in series [4], “binds more weakly”; in [7], “binds”; in series [8], “binds more weakly”; in series [9], “binds more weakly”; in series [10], “binds more weakly”. The binding result was “binds more weakly” in series [13] and “binds” in series [14]. The Ki (as a rule, a dissociation constant, usually derived from enzyme kinetics or from competition with a known ligand) with Sox2-HMG (Homo sapiens) [3] was found to be 1 nM. Further, the binding signal amounted to 10 Kd mut/wt in series [5], 10 Kd mut/wt in series [6], 10 Kd mut/wt in [11] and 5.8 Kd mut/wt in series [12]. Further, the Kd with Sox2-HMG (Homo sapiens) [1] (label: FAM) was determined as 0.9 nM.

For the sequence “GCGAAGGUGGCGGAAUUGGUAGACGCGCUAGCUUCAGGUGUUAGUGUCCUUACGGACGUGGGGGUUCAAGUCCCCCCCCUCGCACCAGGAUCU [tRNALeu(CAG)]”, the Kd with Sox2-HMG (Homo sapiens) [1] (label: 3' fluorescein) amounted to 27 nM. Still for that read-out and setting: the same measure for “GGAAGAAGUGAAAUCACUAUAUUUAGAAACGAAUGCUACCAUCCCACCCCAACUACAUGUUCAGGUUAAAUGCGUGCACAUCCUGGUAG [ES2 1-89]”: 22 nM; for “GGAAGAAGUGAAAUCACUAUAUUUAGAAACGAAUGCUACCAUCCCACCCCAACUACAUGUUCAGGUUAAAUGCGUGCACAUCCUGGUAGCUGGAACAUCUGUUUCUAGCUUGUUGUUCCUCUUGGCUGCUUUUCAAUUGGAUUUCCUCGAGCAGGUCCCAGGCUUGUCACUGCAGCCA [ES2 1-178]”: 30 nM. On the same count and under the same terms, the same measure for “GGACAUAUAAUCGCGUGGAUAUGGCACGCAAGUUUCUACCGGGCACCGUAAAUGUCCGACUAUGUCC [xpt-pbuX riboswitch]”: 26 nM; for “GGAUCAUGCGGGCGAAAGUCUGUACCUCUCC [Loop B, P1(3bp)]”: 10 nM; for “GGCUGGAACAUCUGUUUCUAGCUUGUUGUUCCUCUUGGCUGCUUUUCAAUUGGAUUUCCUCGAGCAGGUCCCAGGCUUGUCACUGCAGCCA [ES2 89-178]”: 13 nM. Take “GGCUGGAACAUCUGUUUCUAGCUUGUUGUUCCUCUUGGCUGCUUUUCAAUUGGAUUUCCUCGAGCAGGUCCCAGGCUUGUCACUGCAGCCAGGGUCUGUUAACCAUCACCACUGGUUCUACAUUAAGUAGGAGGUUCAGGGCUAAGCUAAUAACUCGCCUGCCUUUCUGACUGAUCACAG [ES2 89-267]”: the Kd in the series with Sox2-HMG (Homo sapiens) [1] (label: 3' fluorescein) was 32 nM.

Regarding “GGGUCUGUUAACCAUCACCACUGGUUCUACAUUAAGUAGGAGGUUCAGGGCUAAGCUAAUAACUCGCCUGCCUUUCUGACUGAUCACAG [ES2 179-267]”, the Kd with Sox2-HMG (Homo sapiens) [1] (label: 3' fluorescein) stood at 12 nM. For “GGGUCUGUUAACCAUCACCACUGGUUCUACAUUAAGUAGGAGGUUCAGGGCUAAGCUAAUAACUCGCCUGCCUUUCUGACUGAUCACAGUGAUGUUCGCCGUGGCCACUUAUCAUGCGGGCUCCUUUGGGAGGGUGCUCUUCUUUGUCUGUACCUCUGGGUGGAAAGGGCGAAUUC [ES2 179-354]”, the Kd with Sox2-HMG (Homo sapiens) [1] (label: 3' fluorescein) was 11 nM.
